Assay results: PubChem BioAssay AID504444 (National Center for Advancing Translational Sciences (NCATS), 2011)
About 7,500 (2.1%) of roughly 360,000 compounds were called active. The shares of active, inactive and inconclusive entries below differ from those in the screen. Calls come from the whole dose curve; as a rule, active = well fitted inhibition curve with a large enough effect; inconclusive = small, poorly fitted or top-dose-only effect, or effect the other way; inactive = flat fitted curve, though single readings scatter. Potencies of inconclusive entries are doubtful fits and often do not repeat.

Test: Nrf2 qHTS screen for inhibitors; note: nearly all actives have a fitted effect of over 60% in size
Details: A549 ARE-Fluc reporter, luciferase luminescence, 18-24 h; series mostly up to 46 µM
How it was run: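 Two sequential reads on A549 ARE_Fluc cells exposed to compound for 18-24 h: a CellTiter-Fluor fluorescence read for viability, then a luciferase luminescence read for Nrf2/ARE activity.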
Potency is the fitted concentration of half-maximal effect.

| SMILES | Potency |
| --- | --- |
| COc1ccc(NC(=O)c2ccc(-c3ccccc3)cc2)cc1S(=O)(=O)N1CCOCC1 | inconclusive: 1.46 µM [falling, full curve] |
| O=C(Nc1cccc(Br)c1)c1ccn[nH]1 | inconclusive: 13 µM [activator, partial curve] |
| O=[N+]([O-])c1ccc(O)c(/C=N/Nc2ccccn2)c1 | inconclusive: 6.51 µM [falling, single point] |
| C=CCOc1ccccc1CN(C(=O)CCl)c1ccc2c(c1)OCO2 | inactive |
| COc1ccc(N(CC(=O)Nc2ccc(F)c(Cl)c2)S(=O)(=O)c2c(C)noc2C)cc1 | inconclusive: 29.1 µM [falling, single point] |
| CCN1CCN(Cc2ccc(NC(=O)c3cc(NC(=O)c4cc(C)on4)cc(OC)c3)cc2C(F)(F)F)CC1 | inactive |
| COc1ccc(Cl)cc1NC(=O)CN1c2ccccc2CC1C (stereo not given) | inconclusive: 29.1 µM [falling, single point] |
| CC[C@]12c3[nH]c4ccc(Cl)cc4c3CCN1C(=O)[C@@H](CC(=O)NC/C=C(\C)CCC=C(C)C)C[C@@H]2C(=O)N1CCN(C(=O)C2CC2)CC1 | inconclusive: 29.1 µM [falling, single point] |
| O=C(Nc1nc(=O)c2ccccc2s1)c1ccccc1 | inconclusive: 4.61 µM [activator, partial curve, poor fit] |
| COc1ccc(CCNCc2c(-c3ccccc3)n(C)c3ccccc23)cc1 | inconclusive: 16.4 µM [activator, partial curve] |
| COc1ccc(CNC(=O)c2ccc3c(c2)N(Cc2ccccc2)C(=O)c2ccccc2S3=O)cc1 (stereo not given) | inconclusive: 1.03 µM [falling, partial curve, poor fit] |
| CNc1snc(C)c1C(=O)OC(C)C(=O)Nc1ccccc1 (stereo not given) | inconclusive: 29.1 µM [falling, single point] |
| Cc1c(Cc2ccccc2)sc(NC(=O)c2ccco2)c1C(N)=O | inconclusive: 29.1 µM [activator, single point] |
| Cc1oc2nc(SCC(=O)N3CCCCC3)nc(N)c2c1C | inconclusive: 2.91 µM [activator, full curve, poor fit] |
| NC(=O)C1CCN(c2nc3ccccc3nc2NS(=O)(=O)c2ccc(Br)cc2)CC1 | inconclusive: 23.1 µM [falling, single point] |
| O=C(/C=C/c1ccc([N+](=O)[O-])cc1)OCC(=O)N1c2ccccc2Sc2ccccc21 | inconclusive: 2.91 µM [falling, full curve, poor fit] |
| CC(=O)Nc1ccc(S(=O)(=O)NC2=NCN(C(C)C)CN2)cc1 | inconclusive: 23.1 µM [activator, single point] |
| COc1ccc(C(=O)NN(C)c2nc(-c3ccccc3)nnc2C(F)(F)F)cc1 | inactive |
| Cc1cc(Nc2ccc(N3CCC(C)CC3)cc2)n2ncnc2n1 | inconclusive: 4.61 µM [falling, full curve, poor fit] |
| CC(=O)c1c(C)nc(Nc2nc(C)c3cc(C)ccc3n2)nc1C | inconclusive: 25.9 µM [activator, single point] |

Among those listed so far, these have a CF3 group:

| SMILES | Potency |
| --- | --- |
| CCN1CCN(Cc2ccc(NC(=O)c3cc(NC(=O)c4cc(C)on4)cc(OC)c3)cc2C(F)(F)F)CC1 | inactive |
| COc1ccc(C(=O)NN(C)c2nc(-c3ccccc3)nnc2C(F)(F)F)cc1 | inactive |

Quoted from the listing:
Under Potency, CNc1snc(C)c1C(=O)OC(C)C(=O)Nc1ccccc1 (stereo not given) shows inconclusive: 29.1 µM [falling, single point]
Under Potency, COc1ccc(Cl)cc1NC(=O)CN1c2ccccc2CC1C (stereo not given) shows inconclusive: 29.1 µM [falling, single point]

Following part:

| SMILES | Potency |
| --- | --- |
| COc1ccc(/C=C/C(=O)Nc2ccccc2C(=O)NCC(c2ccc(OC)cc2)N(C)C)cc1 (stereo not given) | inconclusive: 18.4 µM [activator, partial curve, poor fit] |
| O=C(O)CCn1c(-c2ccccn2)nc2ccccc21 | inactive |
| CCOC(=O)C1=C(C)NC(=O)NC1c1cn(-c2ccccc2)nc1-c1cccs1 (stereo not given) | inconclusive: 25.9 µM [falling, single point] |
| CN(C)CCN(C(=O)C1CCCCC1)c1nc2cc3c(cc2s1)OCO3 | inconclusive: 29.1 µM [falling, single point] |
| Cc1nc2cc(-c3ccc(Cl)cc3)nn2c(C)c1CCC(=O)NCc1ccco1 | inconclusive: 2.06 µM [falling, full curve] |
| Cc1ccc(C(C(=O)NC2CCCC2)N(C(=O)Cc2cccs2)c2cccc(C)c2C)o1 (stereo not given) | inconclusive: 29.1 µM [falling, partial curve, poor fit] |
| COC(=O)c1ccsc1-n1cc(C#N)c(=O)n(C)c1=O | inconclusive: 29.1 µM [falling, single point] |
| CCOC(=O)C1=C(COc2ccccc2)NC(=O)NC1c1ccc(Br)cc1 (stereo not given) | inconclusive: 29.1 µM [falling, single point] |
| CN(Cc1ccccc1)C(=O)c1ccc(NC(=O)Cc2cccc(NC(=O)C3CCCN(C(=O)C4CCCC4)C3)c2)cc1 (stereo not given) | inconclusive: 29.1 µM [falling, single point] |
| CNC(=S)N1CCn2cccc2C1c1ccc(F)cc1 (stereo not given) | inconclusive: 29.1 µM [activator, single point] |
| O=C(Nc1ccc2c(c1)OCO2)C1COc2ccccc2O1 (stereo not given) | inconclusive: 14.6 µM [activator, partial curve, poor fit] |
| Cc1ccc(NC(=O)Nc2ncccc2C)cc1 | inconclusive: 20.6 µM [activator, partial curve] |
| CC(C)CCNC(=O)c1cc2c(=O)n3ccccc3nc2s1 | inconclusive: 29.1 µM [activator, single point] |
| CCCCn1c(N)c(N(CC(C)C)C(=O)c2cccc(S(=O)(=O)N(CC)c3ccccc3)c2)c(=O)[nH]c1=O | inactive |
| CC12CCC(c3c(C(=O)Nc4nccs4)nn(-c4ccccc4)c31)C2(C)C (stereo not given) | inconclusive: 13 µM [falling, partial curve, poor fit] |
| Cc1nnc2sc(-c3csc4c3CCCC4)nn12 | inconclusive: 2.91 µM [falling, partial curve] |
| N#C/C(=C(/O)c1cccc(F)c1)c1nc2ccccc2s1 | inactive |
| COC(=O)c1[nH]c2ccc(C)cc2c1NC(=O)CN1CCC(C)CC1 | inconclusive: 18.4 µM [falling, partial curve, poor fit] |
| CNC(=S)N/N=C/c1c(C(=O)OC)cnn1-c1ccc(F)cc1F | inconclusive: 3.66 µM [activator, single point] |
| CC1=CC2CC1C1C(=O)N(c3ccc(S(=O)(=O)Nc4nc(C)cc(C)n4)cc3)C(=O)C21 (stereo not given) | inconclusive: 6.51 µM [activator, partial curve, poor fit] |
